The source of these data is patent US8466151B2, “Compounds and method for treatment of cancer” (Critical Outcome Technologies, Inc., priority 2007, dated 2013).

What all share (format): cell-based
Assay [1] has as its system A460 large cell carcinoma-derived cells (NSCLC; also printed H460). The experiment in a line: In vitro tumor cell growth inhibition, cell count after 3 days. The conditions noted are these: Homo sapiens, NCI-H460, 72 h, 35° C. As for the experimental part: (§1) In vitro inhibition of non-small cell lung cancer (NSCLC) cell lines by the compound of Formula 1B (COTI-4) was evaluated. […] Cells were counted after 3 days in culture and at a cell density of no more than 80%.
(§2) In vitro inhibition of non-small cell lung cancer (NSCLC) cell lines by the compound of Formula 1A is evaluated. […] Cells are counted after 3 days in culture and at a cell density of no more than 80%.
(§3) Briefly, cells were plated in plastic tissue culture plates and grown under standard conditions for each cell line, in carbon dioxide/oxygen atmosphere in plastic tissue culture plates, in the presence of COTI-4 or COTI-4A compounds at 35° C. for 3 days. Control cultures were treated with vehicle minus compound. Cells were counted after 3 days in culture and at a cell density of no more than 80%. The following cell lines, obtained from the National Cancer Institute, were tested: human SCLC cell lines DMS 153, DMS114, SHP77; human NSCLC cell lines H226, A460, A549; human breast cancer cell lines T47D, MCF7; human colon cancer cell line HT29; and, human Leukemia cell lines K562, HL60.

The subject of assay [2] is H226 squamous cell carcinoma-derived cells (NSCLC). The description is as above. As to conditions: Homo sapiens, NCI-H226, 72 h, 35° C. As for the experimental part:
as §1, §2, §3

For assay [3], the system named is human small cell lung cancer cell lines (DMS-114, DMS-153, SHP-77). The experiment in a line: In vitro inhibition of SCLC cell lines, summary statements. As to conditions: across SCLC cell lines, depending on cell line tested, read-out: IC50 values, inhibits growth and/or kills SCLC cells. As to the method: (§4) In vitro inhibition of small cell lung cancer (SCLC) cell lines by the compound of COTI-4 was done with standard human tumor cells (established cell lines available from the American Type Tissue culture collection). Cells were plated in plastic tissue culture plates and grown under standard conditions for each cell line, in carbon dioxide/oxygen atmosphere in plastic tissue culture plates, in the presence of each of the compound of COTI-4, as well as COTI-2MO5 (or COTI-2) and COTI-219MO5 (or COTI-219) compounds (0-1 mM), versus Gleevec® (0-100 mM) at 35° C. for 3 days. Control cultures were treated with vehicle minus compound or Gleevec®. Cells were counted after 3 days in culture and at a cell density of no more than 80%.
as §4, with “of formula 1A” for “of COTI-4”, “of the compounds” for “of each”, “of Formula 1A” for “of the compound of COTI-4, as well as COTI-2MO5 (or COTI-2) and COTI-219MO5 (or COTI-219) compounds (0-1 mM),”

Where a name gives a salt, the structure may show the parent alone.

In the case of `Cc1ccc(NC(=O)c2ccc(CN3CCN(C)CC3)cc2)cc1Nc1nccc(-c2cccnc2)n1` [Gleevec ®, imatinib mesylate, reference compound], the IC50 is 81 µM in assay [1], 72 µM in assay [2] and 15 to 19 µM in assay [3].
